Laboratory results: PubChem BioAssay AID624150 (Cancer Research UK Cambridge, 2012)

Aim: 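Effect of silencing chromatin genes on per-cell differentiation marker amount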 (primary screen)
System: primary human epidermal keratinocytes
Reagent: siRNA pool against human genes, 1-2 µM siRNA in 20 µl nucleofection
Duration: 72 h after transfection plus 48 h differentiation (about 5 days)
Treatment: five arms for 48 h: vehicle, AG1478 10 µM, BMP2/7 200 ng/ml, both together, or 10% serum
Detection: 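Per-cell amount of a differentiation marker read by infrared scanning of the plate, given as a z-score within each plate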
Reading the numbers: z-score, vehicle and z-score, AG1478 10 µM: higher = more differentiation marker per cell
In all, the deposit lists 331 reagents; shown is a random part of them. 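Each arm had three replicate z-scores, but only the first replicate is printed; higher values mean more differentiation marker per cell.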 Not all columns of the deposit are shown. No sequences are given here.

For BRD7 (bromodomain containing 7), the values are z-score, vehicle 1.94; z-score, AG1478 10 µM 0.573. With knock-down of JARID2 (jumonji and AT-rich interaction domain containing 2), the record shows z-score, vehicle -0.313; z-score, AG1478 10 µM 0.62. For BRWD1 (bromodomain and WD repeat domain containing 1), the entry reads z-score, vehicle 1.52; z-score, AG1478 10 µM 1.8. Depletion of NPTXR (neuronal pentraxin receptor) came out at: z-score, vehicle 1.13; z-score, AG1478 10 µM 0.466. With knock-down of PHF11 (PHD finger protein 11) the results were z-score, vehicle -0.687; z-score, AG1478 10 µM -0.68. With knock-down of SFMBT1 (Scm like with four mbt domains 1) the results were z-score, vehicle 0.12; z-score, AG1478 10 µM -1.41.

Silencing of CBX4 (chromobox 4) resulted in: z-score, vehicle -0.525; z-score, AG1478 10 µM -0.266. TDRD9 (tudor domain containing 9) showed z-score, vehicle 0.865; z-score, AG1478 10 µM 0.351.

Sorted by “z-score, AG1478 10 µM” (ascending): some entries from above
PHF11 (PHD finger protein 11) | z-score, vehicle = -0.687; z-score, AG1478 10 µM = -0.68
NPTXR (neuronal pentraxin receptor) | z-score, vehicle = 1.13; z-score, AG1478 10 µM = 0.466

More results follow:
Depletion of ASH1L (ASH1 like histone lysine methyltransferase) gave: z-score, vehicle 0.519; z-score, AG1478 10 µM 1.12. For SIRT4 (sirtuin 4), the entry reads z-score, vehicle 0.13; z-score, AG1478 10 µM 1.06. For KDM4B (lysine demethylase 4B) the deposit lists z-score, vehicle -2.69; z-score, AG1478 10 µM 0.0855. Silencing of EHMT2 (euchromatic histone lysine methyltransferase 2) resulted in: z-score, vehicle -0.865; z-score, AG1478 10 µM -0.43.
